The test is described as follows: qHTS Assay for Modulators of Lamin A Splicing. Conditions: HeLa LMNA splicing GFP/RFP minigene ratio, 48 h. In short, it runs like this:
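S3 HeLa cells stably expressing lamin A-EGFP splicing minigene plus DsRed2, 600 cells/well, 48 h compound exposure at 37C. Laser-scanning cytometry; analysed as GFP (500-530 nm)/RFP (575-640 nm) total intensity ratio; 0.5% DMSO vehicle.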

[1] abbreviates: measured here: GFP splicing reporter channel.
[2] abbreviates: measured here: RFP viability control channel.

The term AC50 denotes the midpoint of the concentration-response curve, whichever way the signal moves.

The other results are listed elsewhere or left out. Shown are side measurements of this screen, not its main read-out; they come without a call. The list favours compounds with an active or inconclusive main result. Words in brackets tell the shape of the fitted curve; partial curves, single points and poor fits give uncertain potencies.

Take `O=C(NCCS(=O)(=O)N1CCN(c2ccccc2)CC1)C1CC(=O)N(c2ccc(F)cc2)C1` (configuration not stated): the AC50 under setting [1] was 0.0708 µM [rising, full curve].
With `COc1ccc(C2CC(c3cccs3)=NN2C(=O)CN2CCCCC2)cc1` (configuration not stated), the AC50 is 3.16 µM [rising, single point] under setting [1] and 1.78 µM [rising, full curve] under setting [2].
For the compound `Cc1cc(C)nc(Sc2nc(C)nc3c2oc2ccccc23)n1`, under setting [1], the AC50 was 11.2 µM [falling, partial curve].
On to `COc1ccc(N2CCN(c3ncnc4c3[nH]c3ccccc34)CC2)cc1`, for which the AC50 is, setting by setting: under setting [1], 6.31 µM [rising, partial curve]; under setting [2], 3.16 µM [rising, full curve].
In the case of `CCOC(=O)N1CCN(C(=O)c2cc(-c3ccc(OCC)cc3)nc3ccccc23)CC1`, the AC50 is, setting by setting: under setting [1], 35.5 µM [rising, single point]; under setting [2], 12.6 µM [rising, partial curve].
With `CC(C)CN1CCN(Cc2cccn2-c2ccccn2)CC1CCO` (configuration not stated), under setting [1], the half-maximal activity concentration (AC50) is 35.5 µM [falling, partial curve, poor fit].
As for `COc1ccc(CCNC(=O)c2ccc(C)s2)cc1OC`, the half-maximal activity concentration (AC50) is 4.47 µM [falling, partial curve, poor fit] under setting [1] and 5.01 µM [falling, single point] under setting [2].
Consider `Cc1cccc(CNS(=O)(=O)c2ccc(-c3cnc(C4CC4)o3)cc2)c1`, for which the AC50 under setting [1] is 35.5 µM [falling, single point].
Take `COc1ccc(C(CC(=O)c2ccc(C)cc2)C(C#N)C#N)cc1OC` (configuration not stated): the half-maximal activity concentration (AC50) reads like this: under setting [1], 35.5 µM [falling, single point]; under setting [2], 3.16 µM [falling, single point].
`Cc1cccc(C2C3=C(Nc4[nH]n(-c5ccccc5)c(=O)c42)c2ccccc2C3=O)c1` (configuration not stated): the concentration at half-maximal activity (AC50) runs as follows: under setting [1], 11.2 µM [rising, single point]; under setting [2], 11.2 µM [rising, partial curve].
On to `Cc1nc2ccccc2n1CC(O)COC1CCCCC1` (configuration not stated), for which the AC50 reads like this: under setting [1], 22.4 µM [rising, single point]; under setting [2], 35.5 µM [rising, single point].
Take `COc1ccc(NS(=O)(=O)c2ccc(NC(=S)NC(=O)/C=C/c3ccccc3)cc2)nn1`: the AC50 under setting [2] was 11.2 µM [rising, partial curve, poor fit].
Still for that read-out and setting: the value for `Cc1ccc2nc(SC(C)C(=O)Nc3cccc([N+](=O)[O-])c3)[nH]c2c1` (configuration not stated) was 31.6 µM [rising, single point].
With `CCCCNC(=O)CSc1nc2ccccc2nc1Cc1ccc(C)cc1`, the half-maximal activity concentration (AC50) under setting [1] was 0.355 µM [rising, single point].
Consider `COc1ccc(-c2nnc(SCc3cc(=O)c4cc(C)cc(C)c4[nH]3)n2C)cc1`, for which the AC50 under setting [1] is 0.708 µM [rising, single point].

The values are drawn from PubChem BioAssay AID1487 (National Center for Advancing Translational Sciences (NCATS), 2009).
